Measurements reported in PubChem BioAssay AID1259254 (NCATS, 2017)

- Aim: 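Finding genes that stop cells copying their DNA twice in one cycle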 (primary screen)
- System: human HCT116 colorectal cancer cells
- Knock-down reagent: single siRNA against human genes
- Duration: 3 days
- Detection: 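Imaged Hoechst DNA stain sorts each cell into a cycle phase by DNA amount; per plate, G2 fraction set to 0% for non-targeting and 100% for GMNN siRNA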
- Direction: G2 robust z-score and G2 cells, % of GMNN control: higher = more G2 cells, more excess DNA replication; raw share of cells in G2: higher = larger share of cells with G2 DNA content
- Hit rule: 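An siRNA counts as active if its G2 robust z-score lies at least 5 MADs above the screen median; here such calls match roughly 38% of GMNN control or more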
In all, the deposit lists about 59,000 reagents; below is a random part of them. About 1,550 of them (2.6%) count as active. 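G2 share is only a proxy for re-replication; each gene was hit by three separate siRNAs, and active genes were retested.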 Raw values are not corrected between plates. Unmarked entries are inactive. The numbers tell different reagents against one gene apart. The record does not give: the amount of reagent.

| target | siRNA no. | G2 robust z-score | G2 cells, % of GMNN control | raw share of cells in G2 (%) |
| --- | --- | --- | --- | --- |
| OR11H1 (GeneID 81061) | 1 | -0.82 | -2.8 | 3.28 |
| OR11H1 (GeneID 81061) | 2 | 0.768 | 8.37 | 7.96 |
| OR11H1 (GeneID 81061) | 3 | -0.851 | -3.02 | 1.55 |
| OBP2B (GeneID 29989) | 1 | 0.138 | 3.94 | 7.95 |
| OBP2B (GeneID 29989) | 2 | -0.477 | -0.387 | 4.06 |
| OBP2B (GeneID 29989) | 3 | 0.304 | 5.11 | 5.66 |
| EVA1B (GeneID 55194) | 1 | 0.0025 | 2.98 | 5.38 |
| EVA1B (GeneID 55194) | 2 | -0.891 | -3.3 | 2.08 |
| EVA1B (GeneID 55194) | 3 | 0.124 | 3.84 | 6 |
| CLEC11A (GeneID 6320) | 1 | -0.611 | -1.33 | 5.23 |
| CLEC11A (GeneID 6320) | 2 | -0.613 | -1.34 | 4.09 |
| CLEC11A (GeneID 6320) | 3 | -0.985 | -3.96 | 2.65 |
| CRTAM (GeneID 56253) | 1 | -1.22 | -5.61 | 2.43 |
| CRTAM (GeneID 56253) | 2 | -0.801 | -2.67 | 5.26 |
| CRTAM (GeneID 56253) | 3 | -0.523 | -0.71 | 4.04 |
| RMND1 (GeneID 55005) | 1 | -0.314 | 0.758 | 4.82 |
| RMND1 (GeneID 55005) | 2 | 0.0228 | 3.13 | 5.43 |
| RMND1 (GeneID 55005) | 3 | 1.94 | 16.6 | 8.44 |
| GGA1 (GeneID 26088) | 1 | -1.21 | -5.57 | 3.64 |
| GGA1 (GeneID 26088) | 2 | -0.992 | -4.01 | 2.68 |
| GGA1 (GeneID 26088) | 3 | 0.0965 | 3.65 | 5.4 |
| ALKAL2 (GeneID 285016) | 1 | 0.213 | 4.47 | 5.27 |
| ALKAL2 (GeneID 285016) | 2 | 0.997 | 9.98 | 6.91 |
| ALKAL2 (GeneID 285016) | 3 | 2.6 | 21.3 | 9.73 |

Part of the list above, showing only “G2 cells, % of GMNN control”:
OR11H1 (GeneID 81061) #2 = 8.37
OR11H1 (GeneID 81061) #3 = -3.02
OBP2B (GeneID 29989) #1 = 3.94
OBP2B (GeneID 29989) #2 = -0.387

Next entries follow.
| target | siRNA no. | G2 robust z-score | G2 cells, % of GMNN control | raw share of cells in G2 (%) |
| --- | --- | --- | --- | --- |
| FAM53C (GeneID 51307) | 1 | 1.34 | 12.4 | 7.28 |
| FAM53C (GeneID 51307) | 2 | -1.28 | -6.05 | 1.44 |
| FAM53C (GeneID 51307) | 3 | -0.571 | -1.05 | 3.83 |
| SCP2D1 (GeneID 140856) | 1 | -0.973 | -3.88 | 2.53 |
| SCP2D1 (GeneID 140856) | 2 | -0.656 | -1.65 | 2.4 |
| SCP2D1 (GeneID 140856) | 3 | 0.253 | 4.75 | 4.72 |
| CALM3 (GeneID 808) | 1 | -0.675 | -1.79 | 3.4 |
| CALM3 (GeneID 808) | 2 | 0.0118 | 3.05 | 6.62 |
| CALM3 (GeneID 808) | 3 | -0.682 | -1.83 | 4.79 |
| ZNG1A (GeneID 55871) | 1 | -0.469 | -0.331 | 4 |
| ZNG1A (GeneID 55871) | 2 | 0.72 | 8.03 | 5.7 |
| ZNG1A (GeneID 55871) | 3 | -1.01 | -4.15 | 2.93 |
| LYRM1 (GeneID 57149) | 1 | -0.297 | 0.879 | 4.69 |
| LYRM1 (GeneID 57149) | 2 | 0.194 | 4.33 | 6.53 |
| LYRM1 (GeneID 57149) | 3 | -0.388 | 0.241 | 3.11 |
| LDLRAD3 (GeneID 143458) | 1 | -0.228 | 1.36 | 5.27 |
| LDLRAD3 (GeneID 143458) | 2 | -0.624 | -1.42 | 4.18 |
| LDLRAD3 (GeneID 143458) | 3 | -0.947 | -3.7 | 4.19 |
| PRH2 (GeneID 5555) | 1 | -0.0174 | 2.84 | 6.18 |
| PRH2 (GeneID 5555) | 2 | 0.802 | 8.61 | 7.62 |
| PRH2 (GeneID 5555) | 3 | 1.22 | 11.6 | 7.54 |
| HMBOX1 (GeneID 79618) | 1 | -0.746 | -2.28 | 3.59 |
| HMBOX1 (GeneID 79618) | 2 | 0.884 | 9.19 | 8.73 |
| HMBOX1 (GeneID 79618) | 3 | 0.326 | 5.26 | 4.09 |
| NCBP2 (GeneID 22916) | 1 | -1.22 | -5.63 | 4.11 |
| NCBP2 (GeneID 22916) | 2 | 10.5 (active) | 77 | 29.9 |
| NCBP2 (GeneID 22916) | 3 | -0.518 | -0.677 | 3.63 |
| BIRC5 (GeneID 332) | 1 | 9.72 (active) | 71.4 | 29 |
| BIRC5 (GeneID 332) | 2 | 12.5 (active) | 90.6 | 37.3 |
| BIRC5 (GeneID 332) | 3 | 14.7 (active) | 107 | 43.7 |
| TTC21A (GeneID 199223) | 1 | 0.585 | 7.09 | 6.14 |
| TTC21A (GeneID 199223) | 2 | -0.783 | -2.54 | 2.11 |
| TTC21A (GeneID 199223) | 3 | -0.71 | -2.03 | 2.12 |
| OR8U3 (GeneID 219479) | 1 | -0.000967 | 2.96 | 4.65 |
| OR8U3 (GeneID 219479) | 2 | 2.43 | 20 | 9.99 |
| OR8U3 (GeneID 219479) | 3 | -0.457 | -0.25 | 3.11 |
| FDX1 (GeneID 2230) | 1 | -0.265 | 1.11 | 5.64 |
| FDX1 (GeneID 2230) | 2 | 1.62 | 14.4 | 10.7 |
| FDX1 (GeneID 2230) | 3 | -1.08 | -4.62 | 2.01 |
| SPATA31E1 (GeneID 286234) | 1 | 0.845 | 8.91 | 6.89 |
| SPATA31E1 (GeneID 286234) | 2 | -0.232 | 1.33 | 3.56 |
| SPATA31E1 (GeneID 286234) | 3 | -0.266 | 1.09 | 3.6 |
| RTP3 (GeneID 83597) | 1 | -1 | -4.1 | 2.74 |
| RTP3 (GeneID 83597) | 2 | 3.34 | 26.5 | 11.3 |
| RTP3 (GeneID 83597) | 3 | -0.949 | -3.71 | 1.28 |
